Experimental data from PubChem BioAssay AID588590 (National Center for Advancing Translational Sciences (NCATS), 2011).
Hit rate of the full screen: of about 390,000 compounds, about 4,000 (1%) were called active. This list was built around the results that the source calls inconclusive (neither active nor inactive); the mix of calls is not that of the screen. The call rests on the fitted dose curve; in most records, active means well fitted inhibition curve with a large enough effect; inconclusive means small, poorly fitted or top-dose-only effect, or another doubt; inactive means no such curve, though single readings can be large or run the other way. Potencies beside an inconclusive call are fits to weak or partial responses and may not hold up.

Chains of the proteins cited; added tags and fusions are not shown. Lines headed by an entry give the natural chain unless they say otherwise; changes in a name come on top.
UniProt Q9UNA4: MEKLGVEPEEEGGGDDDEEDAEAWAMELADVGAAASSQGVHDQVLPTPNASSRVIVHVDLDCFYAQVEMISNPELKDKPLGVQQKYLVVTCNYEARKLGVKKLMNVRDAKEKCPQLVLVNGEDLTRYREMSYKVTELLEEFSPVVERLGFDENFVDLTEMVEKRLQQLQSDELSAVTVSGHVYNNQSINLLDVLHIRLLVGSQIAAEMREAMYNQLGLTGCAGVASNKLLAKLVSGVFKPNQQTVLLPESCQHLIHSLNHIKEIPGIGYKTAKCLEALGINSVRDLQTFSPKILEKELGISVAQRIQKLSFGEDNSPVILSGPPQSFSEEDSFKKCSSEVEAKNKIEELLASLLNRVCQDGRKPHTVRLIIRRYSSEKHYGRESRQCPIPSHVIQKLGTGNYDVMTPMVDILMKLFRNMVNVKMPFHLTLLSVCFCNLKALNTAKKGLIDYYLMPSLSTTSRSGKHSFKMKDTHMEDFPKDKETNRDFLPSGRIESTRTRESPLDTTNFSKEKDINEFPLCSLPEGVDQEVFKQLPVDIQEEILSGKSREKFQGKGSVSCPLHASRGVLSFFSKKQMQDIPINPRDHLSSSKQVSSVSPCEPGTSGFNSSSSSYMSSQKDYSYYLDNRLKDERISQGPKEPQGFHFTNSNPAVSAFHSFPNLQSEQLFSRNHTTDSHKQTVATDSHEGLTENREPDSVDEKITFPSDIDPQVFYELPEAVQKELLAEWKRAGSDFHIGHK

Target: DNA polymerase iota (Homo sapiens) (UniProt Q9UNA4)
Assay: qHTS for Inhibitors of Polymerase Iota
Conditions: Pol iota fluorescent replication assay, 10 min; series mostly up to 115 µM
Outline: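 Fluorescent replication assay read twice, at 0 min and 10 min after adding 50 nM (final) substrate. Enzyme (10 nM) and compounds were first incubated 15 min at room temperature; enzyme-free buffer wells were negative controls.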
Potency means the concentration at half of the fitted maximal effect.

SMILES	Potency
COc1ccc(-n2nc(C(=O)NCC(=O)NC(C)C)c3ccccc3c2=O)cc1Cl	inconclusive: 44.7 µM [inhibitor, single point]
CCCOc1ccc(C(=O)N(Cc2cccs2)C2CCS(=O)(=O)C2)cc1 (stereo not given)	inconclusive: 89.1 µM [inhibitor, single point]
CC(=O)c1c(C)[nH]c(C(=O)COC(=O)C2(C)CC2(Cl)Cl)c1C (stereo not given)	inactive
O=C(C1COc2ccccc2O1)N1CCN(S(=O)(=O)c2cc(F)ccc2F)CC1 (stereo not given)	inactive
CCOc1ccc(C(=O)Nc2cccc3cccnc23)cc1	inactive
Oc1ccccc1C1C=C(c2ccc3c(c2)OCO3)NC(c2cccc(Cl)c2)N1 (stereo not given)	inconclusive: 22.4 µM [inhibitor, partial curve, poor fit]
COc1ccc(S(=O)(=O)N(C(=O)c2ccco2)c2cc3sc(=O)oc3c3ccccc23)cc1	inconclusive: 2.82 µM [inhibitor, partial curve, poor fit]
CCn1nc2cc(C(=O)NCCc3cccs3)ccc2c1OC	inconclusive: 35.5 µM [inhibitor, partial curve, poor fit]
O=C(N/N=C/c1ccoc1)c1ccccc1	inconclusive: 79.4 µM [inhibitor, partial curve, poor fit]
Cc1ccccc1CSc1nnc(-c2ccco2)n1Cc1ccco1	inconclusive: 50.1 µM [inhibitor, full curve]
COc1ccc(NC(=O)c2ccc(S(=O)(=O)N3CC(C)OC(C)C3)cc2)cc1 (stereo not given)	inconclusive: 79.4 µM [inhibitor, partial curve, poor fit]
O=C(CSc1nnc(CNC(=O)c2c(F)cccc2Cl)o1)Nc1ccc2c(c1)OCO2	inconclusive: 89.1 µM [inhibitor, partial curve, poor fit]
N#C/C(=C\c1ccc(OCc2ccc(C(=O)O)cc2)cc1)C(=O)N1CCOCC1	inconclusive: 22.4 µM [inhibitor, full curve, poor fit]
COc1ccc(-c2nc(CSCC(=O)NCc3ccco3)c(C)o2)cc1	inconclusive: 17.8 µM [inhibitor, single point]
CCOC(=O)c1c(NC(=O)C2c3ccccc3Oc3ccccc32)sc(C(C)=O)c1C	inconclusive: 2.51 µM [inhibitor, full curve, poor fit]
O=C(OCc1ccco1)c1ccc(S(=O)(=O)N2CCCCC2)cc1	inconclusive: 112 µM [inhibitor, partial curve, poor fit]
O=C(c1cccs1)C1CCCN(Cc2nc(Cc3ccccc3F)no2)C1 (stereo not given)	inactive
Cc1ccc2c(c1)N(CC(=O)Nc1c(C)cccc1C)C(=O)c1cccnc1O2	inactive
N#Cc1ccccc1OCC(=O)OCCCOC(=O)COc1ccccc1C#N	inactive
CCCCC1=CC2=CC(=O)C(C)(OC(=O)CC)C(=O)C2=CN1Cc1ccco1 (stereo not given)	inconclusive: 56.2 µM [inhibitor, partial curve, poor fit]

Sorted by heavy-atom count (falling): part of the list above
SMILES	Potency
COc1ccc(S(=O)(=O)N(C(=O)c2ccco2)c2cc3sc(=O)oc3c3ccccc23)cc1	inconclusive: 2.82 µM [inhibitor, partial curve, poor fit]
Cc1ccc2c(c1)N(CC(=O)Nc1c(C)cccc1C)C(=O)c1cccnc1O2	inactive
CCCCC1=CC2=CC(=O)C(C)(OC(=O)CC)C(=O)C2=CN1Cc1ccco1 (stereo not given)	inconclusive: 56.2 µM [inhibitor, partial curve, poor fit]

(continued)

SMILES	Potency
Nc1cc(C(=O)O)ccc1N1CCCCC1	inconclusive: 22.4 µM [inhibitor, partial curve, poor fit]
Cc1nnc(Nc2ccc3c(c2)OCO3)c2ccccc12	inconclusive: 28.2 µM [inhibitor, partial curve, poor fit]
CCOC(=O)Cc1csc(NC(=O)CCN2C(=O)c3ccccc3C2=O)n1	inconclusive: 70.8 µM [inhibitor, partial curve]
CCC(C(=O)OCC(=O)c1ccc(OC)cc1OC)c1ccccc1 (stereo not given)	inconclusive: 50.1 µM [inhibitor, single point]
CCc1ccccc1NC(=O)C(=O)c1cc(C)n(-c2ccccc2F)c1C	inconclusive: 89.1 µM [inhibitor, partial curve, poor fit]
Cc1ccc(S(=O)(=O)n2cnc3cc([N+](=O)[O-])ccc32)c(C)c1C	inconclusive: 28.2 µM [inhibitor, single point]
C=CCc1ccc(OCCOc2ccc(/C=N/n3cnnc3)cc2OCC)c(OC)c1	inconclusive: 14.1 µM [inhibitor, full curve, poor fit]
COCCCNC(=O)c1ccc(N2CCCC2)c(NS(=O)(=O)c2ccc(C)cc2)c1	inconclusive: 20 µM [inhibitor, partial curve, poor fit]
O=C(NC1(C(F)(F)F)C(=O)Nc2c1c(=O)[nH]c(=O)n2Cc1ccco1)C1CCCCC1 (stereo not given)	inconclusive: 39.8 µM [inhibitor, partial curve, poor fit]
Cc1cc2ncc(-c3cccs3)nc2cc1C	inconclusive: 0.631 µM [inhibitor, full curve, poor fit]
COc1ccc(C(=O)Nn2c(C3CCC3)nc3ccccc3c2=O)c(OC)c1	inconclusive: 100 µM [inhibitor, single point]
CC(=O)Nc1ccc(Nc2nc3ccc(C)cc3n3nnnc23)cc1	inactive
O=C(c1ccc2c(c1)OCO2)N1CCC2(CC1)Oc1ccc(Cl)cc1C(=O)C21CC(c2cccnc2)=NO1 (stereo not given)	inconclusive: 12.6 µM [inhibitor, partial curve, poor fit]
Cc1cccc(NC(=O)c2ccc(F)c(S(=O)(=O)N(C)C3CCCCC3)c2)c1	inconclusive: 39.8 µM [inhibitor, single point]
CCOc1ccc(C(=O)N2CCN(Cc3cc(=O)n4nc(-c5cccc(OC)c5)sc4n3)CC2)cc1	inconclusive: 89.1 µM [inhibitor, single point]
CC(C)CCn1nnnc1C(c1ccc(F)cc1)N1CCN(C(=O)c2ccco2)CC1 (stereo not given)	inconclusive: 14.1 µM [inhibitor, partial curve]
CC1(C)CC(=O)C(C=NCCN2CCOCC2)=C(O)C1	inconclusive: 12.6 µM [inhibitor, single point]
O=C(CC1S/C(=N/N=C/c2ccco2)NC1=O)Nc1ccccc1 (stereo not given)	inactive
Cc1cc(C)c(C)c(S(=O)(=O)N2CCSCC2)c1C	inconclusive: 79.4 µM [inhibitor, single point]
Cc1ccc2nc(CSc3nnc(-c4ccco4)o3)cc(=O)n2c1	inconclusive: 44.7 µM [inhibitor, partial curve, poor fit]
